# Results as given in the supplement of paper PMC8728848.
# This is one part of the list.
# B1: CALR truncated at D342 (Homo sapiens) (protein)
# chain: EPAVYFKEQFLDGDGWTSRWIESKHKSDFGKFVLSSGKFYGDEEKDKGLQTSQDARFYALSASFEPFSNKGQTLVVQFTVKHEQNIDCGGGYVKLFPNSLDQTDMHGDSEYNIMFGPDICGPGTKKVHVIFNYKGKNVLINKDIRCKDDEFTHLYTLIVRPDNTYEVKIDNSQVESGSLEDDWDFLPPKKIKDPDASKPEDWDERAKIDDPTDSKPEDWDKPEHIPDPDAKKPEDWDEEMDGEWEPPVIQNPEYKGEWKPRQIDNPDYKGTWIHPEIDNPEYSPDPSIYAYDNFGVLGLDLWQVKSGTIFDNFLITNDEAYAEEFGNETWGVTKAAEKQMKD
# Experiments:
# Test in all cases: glycan array binding signal (z-score within array); higher = stronger binding
# Conditions in all cases: glycan notation: IUPAC condensed, linker removed
# [1] = molecular target: GlcNAc(a1-4)Gal(b1-4)GlcNAc(b1-3)Gal(b1-4)GlcNAc(b1-3)Gal(b1-4)GlcNAc
# Method in brief: (§1)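 Glycan array data were curated from 3228 arrays in the Consortium for Functional Glycomics database and kept only where the protein sequence was available. Glycan names were converted to IUPAC-condensed notation, and columns mapping to the same glycan were averaged. The binding signal is a within-array Z-score, averaged across arrays of the same protein sequence at different concentrations or buffers and across linkers. Negative Z-scores can be read as non-binding.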
# [2] = molecular target: GlcNAc(a1-4)Gal(b1-4)GlcNAc(b1-3)Gal(b1-4)[Fuc(a1-3)]GlcNAc(b1-3)Gal(b1-4)[Fuc(a1-3)]GlcNAc
# Method in brief: as §1
# [3] = molecular target: GlcNAc(a1-6)Gal(b1-4)GlcNAc
# Method in brief: as §1
# [4] = molecular target: GlcNAc(b1-2)Gal(b1-3)GalNAc
# Method in brief: as §1
# [5] = molecular target: GlcNAc(b1-2)Man(a1-3)[GlcNAc(b1-2)Man(a1-6)]Man(b1-4)GlcNAc(b1-4)GlcNAc
# Method in brief: as §1
# [6] = molecular target: GlcNAc(b1-2)Man(a1-3)[GlcNAc(b1-2)Man(a1-6)]Man(b1-4)GlcNAc(b1-4)[Fuc(a1-6)]GlcNAc
# Method in brief: as §1
# [7] = molecular target: GlcNAc(b1-2)Man(a1-3)[GlcNAc(b1-4)][GlcNAc(b1-2)Man(a1-6)]Man(b1-4)GlcNAc(b1-4)GlcNAc
# Method in brief: as §1
# [8] = molecular target: GlcNAc(b1-2)[GlcNAc(b1-4)]Man(a1-3)[GlcNAc(b1-2)Man(a1-6)]Man(b1-4)GlcNAc(b1-4)GlcNAc
# Method in brief: as §1
# [9] = molecular target: GlcNAc(b1-2)[GlcNAc(b1-4)]Man(a1-3)[GlcNAc(b1-4)][GlcNAc(b1-2)Man(a1-6)]Man(b1-4)GlcNAc(b1-4)GlcNAc
# Method in brief: as §1
# [10] = molecular target: GlcNAc(b1-2)[GlcNAc(b1-4)]Man(a1-3)[GlcNAc(b1-4)][GlcNAc(b1-2)[GlcNAc(b1-6)]Man(a1-6)]Man(b1-4)GlcNAc(b1-4)GlcNAc
# Method in brief: as §1
# [11] = molecular target: GlcNAc(b1-2)[GlcNAc(b1-4)]Man(a1-3)[GlcNAc(b1-4)][GlcNAc(b1-2)[GlcNAc(b1-6)]Man(a1-6)]Man(b1-4)GlcNAc(b1-4)[Fuc(a1-6)]GlcNAc
# Method in brief: as §1
# [12] = molecular target: GlcNAc(b1-2)[GlcNAc(b1-6)]Man(a1-6)[GlcNAc(b1-2)Man(a1-3)]Man(b1-4)GlcNAc(b1-4)GlcNAc
# Method in brief: as §1
# [13] = molecular target: GlcNAc(b1-2)[GlcNAc(b1-6)]Man(a1-6)[GlcNAc(b1-2)Man(a1-3)]Man(b1-4)GlcNAc(b1-4)[Fuc(a1-6)]GlcNAc
# Method in brief: as §1
# [14] = molecular target: GlcNAc(b1-2)[GlcNAc(b1-6)]Man(a1-6)[GlcNAc(b1-2)Man(a1-3)][GlcNAc(b1-4)]Man(b1-4)GlcNAc(b1-4)GlcNAc
# Method in brief: as §1
# GlcNAc(b1-3)Gal = molecular target: GlcNAc(b1-3)Gal
# Method in brief: as §1
# [15] = molecular target: GlcNAc(b1-3)Gal(b1-3)GalNAc
# Method in brief: as §1
# GlcNAc(b1-3)Gal(b1-4)Glc = molecular target: GlcNAc(b1-3)Gal(b1-4)Glc
# Method in brief: as §1
# [16] = molecular target: GlcNAc(b1-3)Gal(b1-4)GlcNAc
# Method in brief: as §1
# [17] = molecular target: GlcNAc(b1-3)Gal(b1-4)GlcNAc(b1-3)Gal(b1-4)GlcNAc
# Method in brief: as §1
# GlcNAc(b1-3)GalNAc = molecular target: GlcNAc(b1-3)GalNAc
# Method in brief: as §1
# GlcNAc(b1-3)Man = molecular target: GlcNAc(b1-3)Man
# Method in brief: as §1
# [18] = molecular target: GlcNAc(b1-3)[GlcNAc(b1-4)][GlcNAc(b1-6)]GlcNAc
# Method in brief: as §1
# [19] = molecular target: GlcNAc(b1-3)[GlcNAc(b1-6)]Gal(b1-4)GlcNAc
# Method in brief: as §1
# [20] = molecular target: GlcNAc(b1-3)[GlcNAc(b1-6)]GalNAc
# Method in brief: as §1
# [21] = molecular target: GlcNAc(b1-4)Gal(b1-4)GlcNAc
# Method in brief: as §1
# GlcNAc(b1-4)GlcNAc = molecular target: GlcNAc(b1-4)GlcNAc
# Method in brief: as §1
# [22] = molecular target: GlcNAc(b1-4)GlcNAc(b1-4)GlcNAc
# Method in brief: as §1
# [23] = molecular target: GlcNAc(b1-4)GlcNAc(b1-4)GlcNAc(b1-4)GlcNAc(b1-4)GlcNAc
# Method in brief: as §1
# [24] = molecular target: GlcNAc(b1-4)GlcNAc(b1-4)GlcNAc(b1-4)GlcNAc(b1-4)GlcNAc(b1-4)GlcNAc
# Method in brief: as §1
# [25] = molecular target: GlcNAc(b1-4)[GlcNAc(b1-6)]GalNAc
# Method in brief: as §1
# [26] = molecular target: GlcNAc(b1-6)Gal(b1-4)GlcNAc
# Method in brief: as §1
# GlcNAc(b1-6)GalNAc = molecular target: GlcNAc(b1-6)GalNAc
# Method in brief: as §1
# GlcNAc3Prop(b1-4)GlcNAc = molecular target: GlcNAc3Prop(b1-4)GlcNAc
# Method in brief: as §1
# [27] = molecular target: GlcNAc6S(b1-3)Gal(b1-4)GlcNAc
# Method in brief: as §1
# Kdn(a2-3)Gal(b1-3)GalNAc = molecular target: Kdn(a2-3)Gal(b1-3)GalNAc
# Method in brief: as §1
# Kdn(a2-3)Gal(b1-3)GlcNAc = molecular target: Kdn(a2-3)Gal(b1-3)GlcNAc
# Method in brief: as §1
# Kdn(a2-3)Gal(b1-4)Glc = molecular target: Kdn(a2-3)Gal(b1-4)Glc
# Method in brief: as §1
binder,measurement,setting,value
B1,glycan array binding signal (z-score),[1],-0.554
same,glycan array binding signal (z-score),[2],2.68
same,glycan array binding signal (z-score),[3],-0.189
same,glycan array binding signal (z-score),[4],-0.975
same,glycan array binding signal (z-score),[5],0.338
same,glycan array binding signal (z-score),[6],-0.046
same,glycan array binding signal (z-score),[7],-0.028
same,glycan array binding signal (z-score),[8],-0.601
same,glycan array binding signal (z-score),[9],-0.472
same,glycan array binding signal (z-score),[10],-0.185
same,glycan array binding signal (z-score),[11],1.35
same,glycan array binding signal (z-score),[12],-0.279
same,glycan array binding signal (z-score),[13],-0.2
same,glycan array binding signal (z-score),[14],-0.104
same,glycan array binding signal (z-score),GlcNAc(b1-3)Gal,-0.504
same,glycan array binding signal (z-score),[15],2.56
same,glycan array binding signal (z-score),GlcNAc(b1-3)Gal(b1-4)Glc,-0.199
same,glycan array binding signal (z-score),[16],-0.325
same,glycan array binding signal (z-score),[17],-0.257
same,glycan array binding signal (z-score),GlcNAc(b1-3)GalNAc,-1.44
same,glycan array binding signal (z-score),GlcNAc(b1-3)Man,-0.239
same,glycan array binding signal (z-score),[18],1.03
same,glycan array binding signal (z-score),[19],-1.21
same,glycan array binding signal (z-score),[20],0.218
same,glycan array binding signal (z-score),[21],-0.386
same,glycan array binding signal (z-score),GlcNAc(b1-4)GlcNAc,-0.824
same,glycan array binding signal (z-score),[22],-0.875
same,glycan array binding signal (z-score),[23],-0.566
same,glycan array binding signal (z-score),[24],0.08
same,glycan array binding signal (z-score),[25],-0.914
same,glycan array binding signal (z-score),[26],-1.14
same,glycan array binding signal (z-score),GlcNAc(b1-6)GalNAc,0.058
same,glycan array binding signal (z-score),GlcNAc3Prop(b1-4)GlcNAc,-0.402
same,glycan array binding signal (z-score),[27],0.023
same,glycan array binding signal (z-score),Kdn(a2-3)Gal(b1-3)GalNAc,-0.218
same,glycan array binding signal (z-score),Kdn(a2-3)Gal(b1-3)GlcNAc,-0.98
same,glycan array binding signal (z-score),Kdn(a2-3)Gal(b1-4)Glc,1.27

# 2 entries from above, bar-delimited:
binder | measurement | setting | value
B1 | glycan array binding signal (z-score) | [27] | 0.023
same | glycan array binding signal (z-score) | Kdn(a2-3)Gal(b1-3)GalNAc | -0.218
